This is one part of the list. The main result of the screen is listed elsewhere. These columns were measured beside it and carry no call. Most of these compounds were active or inconclusive in the main read-out, so they are no random draw. The note in brackets gives the kind of curve behind each potency; many fits are weak.

The assay in a line: qHTS Assay for Lipid Storage Modulators in Drosophila S3 Cells.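 For cell number change: cells counted by Cell Tracker Red CMTPX staining in the red channel.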 The following applies: BODIPY lipid droplet fluorescence, 18-24 h; for cell number change: measured here: cell count max response, cells fed with added oleic acid. Put shortly:
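Drosophila S3 cells loaded with oleic acid (400 uM, as added) and compounds at several concentrations; lipid droplets imaged by 488-nm laser-scanning cytometry, 500–530 nm intensity and object ratio to cell channel. Percent activity normalized to 20 uM Triacsin C.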

The mark [1] stands for this setting: measured here: lipid fluorescence (Fed channel) AC50, cells fed with added oleic acid.
Where [2] appears, read: measured here: cell number channel AC50, cells fed with added oleic acid.

For `O=C(NCCCn1ccnc1)C1CCCN(S(=O)(=O)c2ccc(F)cc2)C1` (stereo unspecified), the AC50 (usually the midpoint of the concentration-response curve, whichever way the signal moves) under setting [1] is 6.51 µM [rising, single point]. Still for that read-out and setting: next, `CSc1nc(N2CCOCC2)c2c(c1C#N)CCCCC2`: 6.51 µM [rising, single point]. Consider `Cc1ccc(-n2nc3c(N4CCC(C(=O)NCCc5cccs5)CC4)nnc(C)c3c2C)cc1`, for which the cell number change amounted to 80%. The AC50 under setting [2] was 29.1 µM [rising, single point]. On to `CCCCOC(=O)Oc1ccc2c(=O)c(Oc3cc(C)cc(C)c3)coc2c1`, for which the cell number change came to 27.4%.

In the case of `CCOc1ccc(NC(=O)CN(C)C(=O)c2cn3ccccc3n2)cc1OCC`, the half-maximal activity concentration (AC50) is, setting by setting: under setting [2], 3.66 µM [rising, partial curve]; under setting [1], 4.11 µM [rising, partial curve, poor fit]. For `COC(=O)Cn1c(=O)n(CCc2ccccc2)c(=O)c2c3c(sc21)CCCC3`, the AC50 under setting [2] is 0.517 µM [rising, full curve] and the AC50 under setting [1] is 2.91 µM [rising, partial curve]. For `Cc1oc(C(=O)O)cc1COc1cccc2cccnc12`, under setting [1], the AC50 is 7.31 µM [falling, partial curve].

With `Cc1c(C(c2ccc(O)cc2)c2c(C)n(C)n(-c3ccccc3)c2=O)c(=O)n(-c2ccccc2)n1C`, the AC50 under setting [2] is 0.103 µM [falling, full curve]. For the molecule `Cc1ccc(N=Nc2ccc3ccccc3c2O)cc1`, the AC50 under setting [1] was 0.731 µM [falling, full curve, poor fit]. For `CCSc1nc(C)c(CC)c(C)c1C(N)=O`, the cell number change is -20%. Further, the half-maximal activity concentration (AC50) under setting [1] was 5.17 µM [falling, full curve]. For `Cc1ccccc1-c1nc2sc3c(c2c(=O)n1N)CCCC3`, the cell number change was determined as 38.9%. Under setting [2], the AC50 was 29.1 µM [rising, single point]. Further, the AC50 under setting [1] is 29.1 µM [rising, single point]. On to `COc1ccc(NC(=S)NC2CC3CCC2C3)c(OC)c1` (stereo unspecified), for which the cell number change amounted to 35.1%. Besides, the AC50 under setting [2] is 7.31 µM [rising, partial curve]. For `COc1ccc(C(=O)NCc2ccc3c(c2)OCO3)cc1`, the cell number change stood at 40.6%. In addition, the AC50 under setting [2] was 0.082 µM [rising, full curve]. Moreover, the AC50 under setting [1] was 0.103 µM [rising, full curve, poor fit]. Regarding `Cc1noc(C)c1CSc1nc2[nH]ncc2c(=O)n1-c1ccccc1`, the cell number change is -22.4%. Moreover, under setting [1], the AC50 is 9.2 µM [falling, partial curve]. For `CN(C)c1ccc(/C=N/OC(=O)Nc2ccccc2Cl)cc1`, the cell number change was -45.2%. Under setting [2], the AC50 is 25.9 µM [falling, single point]. Besides, the concentration at half-maximal activity (AC50) under setting [1] was 25.9 µM [falling, partial curve, poor fit]. As for `Cc1cc(C)cc(CC2CC(=O)N(c3cc(C)ccc3C)C2=O)c1` (stereo unspecified), the cell number change was -1.06%. With `CCc1cc(C(=O)OC)c(NC(=O)C2CC(=O)NN2Cc2ccccc2)s1` (stereo unspecified), the cell number change is -32.8%. Under setting [2], the AC50 is 32.6 µM [falling, single point]. In addition, the AC50 under setting [1] is 0.651 µM [rising, partial curve, poor fit]. As to `O=C(NNC(=O)C1COc2ccccc2O1)c1ccccc1` (stereo unspecified), the cell number change was -32.9%. Also, under setting [2], the AC50 was 7.31 µM [falling, partial curve, poor fit].

For the molecule `Nc1ccn(CC(=O)NCCc2ccccn2)c(=O)n1`, the cell number change is 13.1%. The AC50 under setting [1] is 16.4 µM [rising, single point]. Consider `CCCCNc1nnc(SCC(=O)N2CCN(S(=O)(=O)c3ccc4ccccc4c3)CC2)s1`, for which the AC50 under setting [2] was 6.51 µM [rising, single point] and the AC50 under setting [1] was 2.31 µM [rising, partial curve]. With `O=C1NC(=S)S/C1=C1\Sc2ccccc2N1CCCS(=O)(=O)O`, the cell number change is 7.97%. Further, the AC50 under setting [1] is 29.1 µM [falling, partial curve]. As for `O=c1[nH]c2ccccc2cc1CN(Cc1cccnc1)S(=O)(=O)c1ccc(Cl)cc1`, the cell number change was -37.3%. Also, the AC50 under setting [2] is 13 µM [falling, partial curve, poor fit]. Further, under setting [1], the AC50 was 29.1 µM [falling, single point]. For `Cc1c(-c2cccc(Cl)c2)nc2ccccc2c1C(=O)NC1CC1`, the cell number change is -1.7%. The AC50 under setting [1] is 29.1 µM [rising, single point].

Consider `CC(C(=O)NCC1CCCCC1)N1CCN(S(=O)(=O)c2cccs2)CC1` (stereo unspecified), for which the cell number change came out at 38.6%. Besides, the AC50 under setting [2] was 14.6 µM [rising, single point].

`COCCNC(=S)NN(c1ccccc1)c1ccccc1`: the cell number change was -29%. Further, under setting [2], the AC50 is 0.631 µM [falling, full curve, poor fit]. The AC50 under setting [1] is 0.631 µM [falling, full curve, poor fit]. Take `CC1CN(C(=O)CCC(=O)NCCc2ccccc2)c2ccccc2O1` (stereo unspecified): the cell number change is -6.63%. For the molecule `OCc1nc2ccc(Cl)cc2[nH]1`, the cell number change came out at 23.7%. Besides, under setting [1], the AC50 was 0.184 µM [rising, full curve, poor fit].

Turning to `CC(C)CN(C(=O)COC(=O)c1ccccc1Sc1ccccc1C#N)C1CCS(=O)(=O)C1` (stereo unspecified), the AC50 was 5.8 µM [rising, single point] under setting [2] and 7.31 µM [rising, partial curve] under setting [1]. On to `CC(NC(=O)C(=O)NCCN1CCN(C(=O)c2ccccc2Br)CC1)c1ccccc1` (stereo unspecified), for which the cell number change was 12.8%. Consider `COCCCNC(=S)Nc1cc(C)c(C)cc1C`, for which the cell number change was -2.06%. The AC50 under setting [1] is 0.651 µM [falling, single point]. In the case of `COC(=O)c1ccccc1NC(=O)C1CCN(C(=O)c2cc(OC)c(OC)c(OC)c2)CC1`, the cell number change worked out at 50.7%. Besides, the AC50 under setting [2] is 1.3 µM [rising, full curve]. Also, under setting [1], the AC50 is 1.46 µM [rising, partial curve]. In the case of `COCCCNC(=O)c1ccc(N2CCOCC2)c(NS(=O)(=O)c2ccc(OC)cc2)c1`, the cell number change came out at 7.19%. Besides, under setting [1], the AC50 is 0.116 µM [rising, full curve, poor fit]. With `Cc1ccc(C2(CCNCc3ccc(N(C)C)cc3)CCOC(C(C)C)C2)cc1` (stereo unspecified), the cell number change was -13.2%. Also, the AC50 under setting [2] is 0.164 µM [falling, full curve, poor fit]. Moreover, the AC50 under setting [1] was 6.51 µM [falling, partial curve, poor fit]. With `CCN(CC)CCCCOc1ccccc1OC`, the cell number change was -67.2%. For the same molecule, the AC50 under setting [2] was 16.4 µM [falling, partial curve, poor fit]. As for `COc1ccc(C(=O)/C=C/c2cccc(OCc3ccccc3)c2)cc1CSCC(=O)O`, the cell number change worked out at 20.7%. Further, the concentration at half-maximal activity (AC50) under setting [1] is 14.1 µM [falling, partial curve]. Consider `CC(=O)c1ccc(OCC(=O)N2CCN(S(=O)(=O)c3ccc(C)cc3C)CC2)cc1`, for which the cell number change came to 17.2%. Further, under setting [1], the AC50 is 0.316 µM [falling, single point]. `CC1=C(C(=O)NC2CCCCC2C)C2(CCC(C)CC2)OC1=O` (stereo unspecified): the cell number change is -15.8%. Also, the AC50 under setting [2] is 2.06 µM [falling, partial curve]. The AC50 under setting [1] was 2.06 µM [falling, partial curve]. As for `CCOC(=O)c1ccc(NC(=O)CCNS(=O)(=O)c2cccs2)cc1`, the cell number change stood at 4.05%. Under setting [1], the AC50 was 29.1 µM [rising, single point]. Take `O=C(O)CSc1nnc(CNc2cccc(C(F)(F)F)c2)n1Cc1ccco1`: the cell number change came to 0.65%. In addition, the AC50 under setting [1] is 0.651 µM [rising, partial curve]. With `O=c1ccc(-c2ccc(S(=O)(=O)Nc3ccc(F)cc3)s2)n[nH]1`, the cell number change is -38.6%. Moreover, the AC50 under setting [2] is 32.6 µM [falling, partial curve, poor fit]. `COc1ccc(CC(=O)NCC(=O)N/N=C/c2sccc2C)cc1`: the cell number change was -1.52%. Under setting [2], the half-maximal activity concentration (AC50) was 0.58 µM [rising, single point]. For `Cc1ccc(C(=O)N/N=C\c2ccc(-c3ccc(Cl)c(Cl)c3)o2)cn1`, the cell number change is -16.9%. Under setting [2], the AC50 is 0.0058 µM [falling, full curve, poor fit]. Besides, the AC50 under setting [1] was 0.00411 µM [falling, full curve, poor fit]. As for `CCc1nn(CCCC(=O)Nc2ccc(C)c(C)c2)c(=O)c2cc3occc3n12`, the cell number change is -6.49%. Under setting [1], the concentration at half-maximal activity (AC50) was 0.103 µM [rising, full curve, poor fit]. For the molecule `CN1CCN(c2nc3c(c(=O)[nH]c(=O)n3C)n2Cc2ccc(Cl)cc2)CC1`, the cell number change was determined as 12.8%. As to `COc1ccccc1NC(=O)N(Cc1ccco1)Cc1cc2cccc(C)c2[nH]c1=O`, the AC50 under setting [1] was 1.46 µM [rising, full curve, poor fit]. On the same count and under the same terms, next, `Cn1nccc1C(=O)N/N=C/c1c(O)ccc2ccccc12`: 11.6 µM [falling, partial curve]. With `COc1ccc(CCN(C)C(=O)CSc2nnc(-c3ccco3)o2)cc1OC`, the cell number change was -9.38%. Further, the AC50 under setting [1] was 20.6 µM [falling, single point]. Take `COc1cc(C(=O)Nc2c(C(=O)O)[nH]c3ccc(Br)cc23)cc(OC)c1OC`: the cell number change is 2.78%.

Turning to `Cc1ccc(NC(=O)CSc2nc3ccccc3nc2N2CCCC2)cc1`, the cell number change was -2.59%. Take `Cc1ccccc1NC(=O)COC(=O)c1ccc2c(c1)OCCO2`: the cell number change amounted to 57%. Besides, the AC50 under setting [2] was 2.59 µM [rising, full curve]. Consider `O=c1cc(Nc2ccc3c(c2)OCCO3)[nH]c(=O)n1-c1ccc(Cl)cc1`, for which the AC50 under setting [1] was 0.651 µM [falling, full curve, poor fit].

In the case of `CCN1CCN(C(=O)C2CCN(S(=O)(=O)c3cccc4cccnc34)CC2)CC1`, under setting [1], the AC50 was 0.461 µM [rising, partial curve, poor fit]. Consider `O=C(CN1CCCC1=O)NC1C2CC3CC(C2)CC1C3` (stereo unspecified), for which the cell number change is -28.5%. In addition, the AC50 under setting [2] is 0.00366 µM [falling, full curve, poor fit]. For the same molecule, under setting [1], the half-maximal activity concentration (AC50) was 0.326 µM [falling, full curve]. Regarding `COc1ccc(/C=N/NC(=O)c2cccnc2)cc1O`, the cell number change came to 14.6%. Also, under setting [1], the half-maximal activity concentration (AC50) is 20.6 µM [rising, single point]. In the case of `Cn1c(CNC(=O)CNC(=O)c2ccccc2F)cc(=O)n(C)c1=O`, the cell number change is 35.8%. Moreover, under setting [2], the half-maximal activity concentration (AC50) was 0.00461 µM [rising, full curve]. Besides, the AC50 under setting [1] is 0.00461 µM [rising, full curve, poor fit]. For the molecule `CC(C)[C@H](NC(=O)N1CC(=O)Nc2ccccc21)C(=O)N[C@@H](Cc1c[nH]c2ccccc12)C(=O)O`, the cell number change was determined as 14.6%. In addition, the AC50 under setting [1] was 29.1 µM [rising, single point]. Turning to `COCCn1nnnc1C(c1ccc(OC)cc1OC)N1CCN(c2ccccc2)CC1` (stereo unspecified), the cell number change was -12.1%. For `CCc1cc2c(=O)[nH]c(-c3ccccn3)nc2s1`, the cell number change was -16.4%. The AC50 under setting [1] is 16.4 µM [falling, single point].

Source of the values: PubChem BioAssay AID2685 (National Center for Advancing Translational Sciences (NCATS), 2010).
